Measured values from publication PMC4109846.
No constants are given. Whether binding was seen depends on the method and setting. For part of these data: Binding seen in cells or lysates may run through a third protein. Some binding calls cover weakened binding; strength is not graded here. Tags and fused reporters may be left off the sequences shown.

How the values were obtained:
[1] = target: T1, ARID1 (AT-Rich Interacting Domain-containing protein 1), full length cDNA in pGBT9 (Arabidopsis thaliana) (UniProt Q84JT7); assay: two-hybrid; yeast strain AH109; ARID1 or ARID1-C in pGBT9, HDA8 in pGAD10; medium lacking leucine, tryptophan and histidine with 10 mM 3-amino-1,2,4-triazole; 2-4 d at 28°C
T1 sequence: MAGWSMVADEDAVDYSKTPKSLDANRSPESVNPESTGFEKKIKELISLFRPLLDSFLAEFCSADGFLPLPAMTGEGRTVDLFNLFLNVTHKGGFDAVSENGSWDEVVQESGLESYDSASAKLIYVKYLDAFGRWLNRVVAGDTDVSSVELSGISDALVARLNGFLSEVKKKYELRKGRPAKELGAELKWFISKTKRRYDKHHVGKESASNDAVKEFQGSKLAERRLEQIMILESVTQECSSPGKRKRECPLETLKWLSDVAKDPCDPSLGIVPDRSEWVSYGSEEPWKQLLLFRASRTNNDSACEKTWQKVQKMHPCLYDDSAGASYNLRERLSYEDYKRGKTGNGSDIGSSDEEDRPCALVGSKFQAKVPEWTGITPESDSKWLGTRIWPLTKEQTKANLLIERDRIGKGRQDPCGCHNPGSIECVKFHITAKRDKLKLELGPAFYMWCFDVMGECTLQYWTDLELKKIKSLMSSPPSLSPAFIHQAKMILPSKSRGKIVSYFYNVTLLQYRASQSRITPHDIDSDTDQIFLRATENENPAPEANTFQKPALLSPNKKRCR

[2] = target: T2, GST-HDA8 (full length HDA8 fused to GST) (Arabidopsis thaliana) (UniProt Q94EJ2); assay: pull-down; GST or GST-HDA8 on glutathione Sepharose 4B beads (30 µg total protein); 600 µl protein extract from inflorescences of ARID1-GFP plants; 2 h at 4°C; washed 5 times with IP lysis buffer; anti-GFP immunoblot; only the target purified
T2 sequence: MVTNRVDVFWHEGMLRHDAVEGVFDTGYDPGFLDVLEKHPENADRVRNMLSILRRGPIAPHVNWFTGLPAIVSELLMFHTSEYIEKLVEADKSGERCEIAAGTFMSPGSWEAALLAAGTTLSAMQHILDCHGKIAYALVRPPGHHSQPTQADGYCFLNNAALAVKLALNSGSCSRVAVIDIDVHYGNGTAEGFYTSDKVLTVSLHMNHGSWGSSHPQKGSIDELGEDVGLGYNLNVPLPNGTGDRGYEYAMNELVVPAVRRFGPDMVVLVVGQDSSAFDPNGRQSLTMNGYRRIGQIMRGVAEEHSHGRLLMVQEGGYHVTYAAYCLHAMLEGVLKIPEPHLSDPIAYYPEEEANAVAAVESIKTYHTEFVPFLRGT

[3] = target: T3, ARID1-Myc (Arabidopsis thaliana) (UniProt Q84JT7); assay: co-IP; inflorescence lysate of ARID1-Myc; HDA8-YFP doubly transgenic plants; Myc antibodies on protein G agarose; 50 mM Tris-HCl pH 7.5, 150 mM NaCl, 0.2% NP-40, 2 mM DTT, 10% glycerol; 2 h at 4°C; anti-Myc and anti-GFP immunoblot
T3 sequence: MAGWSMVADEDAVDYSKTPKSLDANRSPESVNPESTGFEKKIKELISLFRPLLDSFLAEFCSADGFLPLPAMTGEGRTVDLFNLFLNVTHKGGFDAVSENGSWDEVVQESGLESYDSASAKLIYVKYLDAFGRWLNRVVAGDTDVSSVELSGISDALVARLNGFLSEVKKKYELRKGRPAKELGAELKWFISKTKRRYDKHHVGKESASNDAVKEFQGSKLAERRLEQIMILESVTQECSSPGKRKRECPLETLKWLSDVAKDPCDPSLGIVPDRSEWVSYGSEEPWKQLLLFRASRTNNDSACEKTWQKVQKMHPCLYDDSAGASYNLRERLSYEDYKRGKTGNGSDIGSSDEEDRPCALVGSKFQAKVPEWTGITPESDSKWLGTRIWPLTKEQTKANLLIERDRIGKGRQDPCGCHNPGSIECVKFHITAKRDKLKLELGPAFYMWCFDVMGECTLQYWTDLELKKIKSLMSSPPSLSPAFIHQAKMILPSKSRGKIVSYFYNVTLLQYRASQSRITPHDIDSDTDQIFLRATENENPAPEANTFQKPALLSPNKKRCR

B1: HDA8 (Histone Deacetylase 8), full length cDNA in pGAD10 (enzyme, UniProt Q94EJ2 1-377)
chain: MVTNRVDVFWHEGMLRHDAVEGVFDTGYDPGFLDVLEKHPENADRVRNMLSILRRGPIAPHVNWFTGLPAIVSELLMFHTSEYIEKLVEADKSGERCEIAAGTFMSPGSWEAALLAAGTTLSAMQHILDCHGKIAYALVRPPGHHSQPTQADGYCFLNNAALAVKLALNSGSCSRVAVIDIDVHYGNGTAEGFYTSDKVLTVSLHMNHGSWGSSHPQKGSIDELGEDVGLGYNLNVPLPNGTGDRGYEYAMNELVVPAVRRFGPDMVVLVVGQDSSAFDPNGRQSLTMNGYRRIGQIMRGVAEEHSHGRLLMVQEGGYHVTYAAYCLHAMLEGVLKIPEPHLSDPIAYYPEEEANAVAAVESIKTYHTEFVPFLRGT
Question: For B1, which binding [1] is on record?
Answer: The binding was “binds”.

B2: ARID1-GFP (protein, UniProt Q84JT7 1-562)
chain: MAGWSMVADEDAVDYSKTPKSLDANRSPESVNPESTGFEKKIKELISLFRPLLDSFLAEFCSADGFLPLPAMTGEGRTVDLFNLFLNVTHKGGFDAVSENGSWDEVVQESGLESYDSASAKLIYVKYLDAFGRWLNRVVAGDTDVSSVELSGISDALVARLNGFLSEVKKKYELRKGRPAKELGAELKWFISKTKRRYDKHHVGKESASNDAVKEFQGSKLAERRLEQIMILESVTQECSSPGKRKRECPLETLKWLSDVAKDPCDPSLGIVPDRSEWVSYGSEEPWKQLLLFRASRTNNDSACEKTWQKVQKMHPCLYDDSAGASYNLRERLSYEDYKRGKTGNGSDIGSSDEEDRPCALVGSKFQAKVPEWTGITPESDSKWLGTRIWPLTKEQTKANLLIERDRIGKGRQDPCGCHNPGSIECVKFHITAKRDKLKLELGPAFYMWCFDVMGECTLQYWTDLELKKIKSLMSSPPSLSPAFIHQAKMILPSKSRGKIVSYFYNVTLLQYRASQSRITPHDIDSDTDQIFLRATENENPAPEANTFQKPALLSPNKKRCR
Question: Which binding [2] does the source give for B2 here?
Answer: Its binding is “binds”.

B3: HDA8-YFP (enzyme, UniProt Q94EJ2 1-377)
chain: MVTNRVDVFWHEGMLRHDAVEGVFDTGYDPGFLDVLEKHPENADRVRNMLSILRRGPIAPHVNWFTGLPAIVSELLMFHTSEYIEKLVEADKSGERCEIAAGTFMSPGSWEAALLAAGTTLSAMQHILDCHGKIAYALVRPPGHHSQPTQADGYCFLNNAALAVKLALNSGSCSRVAVIDIDVHYGNGTAEGFYTSDKVLTVSLHMNHGSWGSSHPQKGSIDELGEDVGLGYNLNVPLPNGTGDRGYEYAMNELVVPAVRRFGPDMVVLVVGQDSSAFDPNGRQSLTMNGYRRIGQIMRGVAEEHSHGRLLMVQEGGYHVTYAAYCLHAMLEGVLKIPEPHLSDPIAYYPEEEANAVAAVESIKTYHTEFVPFLRGT
Question: B3 was tested. Which binding [3] did it give?
Answer: Its binding is “binds”.
